Test results from BindingDB's records for PubMed 21964340.

Experiment: Inhibition of TAF1B (unknown origin) incubated for 1 hr by colloidal coomassie staining based LC-MS/MS analysis

CCNC(=O)C[C@@H]1N=C(c2ccc(Cl)cc2)c2cc(OC)ccc2-n2c(C)nnc21
IC50: 180 nM
